Reference: paper PMC6739421
No constants are given. Whether binding was seen depends on the method and setting. Binding calls can cover weak binding; strength is not graded here.

These substances were tested against T1, phage λ terminase small subunit (TerS, gpNu1), wild type (phage λ) (UniProt P03707) (assay: two-hybrid; bacterial adenylate cyclase two-hybrid (BACTH) in E. coli BTH101 with plasmids pKT25 and pUT18C; colour on X-gal/IPTG plates at 30°C and β-galactosidase in Miller units after overnight induction with 0.5 mM IPTG).
T1 sequence: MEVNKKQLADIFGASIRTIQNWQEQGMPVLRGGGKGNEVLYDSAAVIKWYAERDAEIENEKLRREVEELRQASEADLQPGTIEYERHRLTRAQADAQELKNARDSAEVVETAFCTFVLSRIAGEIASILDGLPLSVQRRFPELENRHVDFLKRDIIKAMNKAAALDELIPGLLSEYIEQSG
With “Rpp protein from Pluralibacter gergoviae” the binding was “binds”. With “RppA (redirecting phage packaging protein A, c1503-encoded protein of the PICI EcCICFT073) (Escherichia coli CFT073)” the binding was “binds”. RppA L51D (Escherichia coli CFT073) was tested, and the binding was “no binding”.
